# The supplement of paper PMC10338343
# ± gives the standard deviation. The entries are a selection whose mix differs from that of the whole data set. Many of these values have a large error.
# Test system: MIWI (PIWIL1) piRISC loaded with Kctd7 piRNA (30 nt)
# Test: pre-steady-state target cleavage rate (min^-1); MIWI and MILI are mouse PIWI proteins and EfPiwi is from a freshwater sponge; tags in brackets are library labels; higher = faster piRNA-guided slicing of the target
# Details: guide: Kctd7 piRNA 5'p-UGUUAAUCUCUCAGAGAAGGUGACAGUGAU; auxiliary factor: 500 nM mouse GTSF1
# Outline: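 Cleave-'n-Seq: 1 nM active affinity-purified piRISC with one synthetic guide and 0.1 nM transcribed, DNA-blocked target RNA library were mixed, with or without 500 nM GTSF1 partner protein, in HEPES–potassium acetate buffer at 33 °C for 0–8 or 0–960 min. Uncleaved targets were sequenced and normalised to depth and to weakly complementary targets, three trials were pooled, and k3 was capped at 0.0001 min^-1. The pre-steady-state cleavage rate was fitted […].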
row,Sequence,pre-steady-state target cleavage rate
1,UAGUCUGUCACCUUCUCUCUCAGAUUAAGA,0.00106 ± 0.0084
2,UAGUGACAGUGGAAGAGACAGAGGUUAACA,0.000245 ± 0.017
3,UAGUGACACACCUUCUGAGAGAGAUUUUGA,0.00187 ± 0.0082
4,UAGUGACUCACCUUCUGAGAGAGAUUAUGA,0.000588 ± 0.012
5,UAGUGACAGUGGAACUCUGAGACAUAAACA,0.0013 ± 0.013
6,UAGUGACAGUGGAAGAGAGAGAAAUUAACA,0.000168 ± 0.033
7,UAGUGACAGUCCUUCACUGAGAGAAUAACA,0.00126 ± 0.0074
8,UAGUGAGUCACCUAGUCUGAGAGAUUUUGA,0.00034 ± 0.025
9,UAGUGACAGUCCUUCUCUGAGAGUUUUACA,0.0012 ± 0.0051
10,UAGUCUGUCACGUUCUCUGAGAGAUAUUGA,0.00134 ± 0.0055
11,UAGUGACAGUCCUUCUCUGAGAGAUUAAACA,0.0368 ± 0.0052
12,UAGACUGUCACCUUGACUGAGAGAUAUUGA,0.000659 ± 0.0072
13,UAGUGACAGUCCUUCACUCAGAGAUUAACA,0.000828 ± 0.011
14,UUCACUGUCACCUUCUCUGACUGAUAUUGA,0.00148 ± 0.0054
15,UAGUGACAGUCCUUCUCUGAGACAUUAUCA,0.00032 ± 0.014
16,UAGUGAGUCACCUUCAGAGAGAGAUUAAGA,0.00202 ± 0.0083
17,UAGUGACAGACCUUCUCUGAGAGAUAUUGA,0.00217 ± 0.0055
18,UAGACUGUCACCUUCUCUGAGACUAUAUGA,0.000121 ± 0.014
19,UAGUCUGUCACCUUCACUGAGAGAUUUUGA,0.176 ± 0.046
20,UAGUGACAGUCCUUCUCUCAGUGAUUAACA,0.002 ± 0.0039
21,UAGUGACAGACCUACUGUGAGAGAUUAACA,0.0025 ± 0.0049
22,AUCACUGGCACCUUCUCUGAGAGAUUAACA,0.724 ± 0.17
23,UAGUGACUCACCUUCUCUGAGUCUUUAACA,0.00077 ± 0.011
24,UAGUGACAGACCUUCUGUGAGAGAUUUUGA,0.00132 ± 0.01

# 3 neighbouring entries already listed, quoted:
row,Sequence,pre-steady-state target cleavage rate
12,UAGACUGUCACCUUGACUGAGAGAUAUUGA,0.000659 ± 0.0072
13,UAGUGACAGUCCUUCACUCAGAGAUUAACA,0.000828 ± 0.011
14,UUCACUGUCACCUUCUCUGACUGAUAUUGA,0.00148 ± 0.0054

# Continuation:

row,Sequence,pre-steady-state target cleavage rate
1,UAGACUGUCACCUUCUCUGACAGAUUAAGA,0.00143 ± 0.004
2,UAGUGACAGUGCUUCUCGUGAGAGAUUAACA,0.000944 ± 0.0095
3,UAGACUGUCACCUAGACUGAGAGAUUAAGA,0.000541 ± 0.01
4,UAGACUGUCACCUUCUGACAGAGAUAUUGA,0.000132 ± 0.037
5,UAGUGACAGUGGAAGAGUGAGAAUUAACA,0.000266 ± 0.031
6,UAGUGACAGACCUUCUCUGUGACAUUAACA,0.00672 ± 0.0033
7,AUCUACUGUCACCUUCUCUGAGAGAUUAACA,0.719 ± 0.041
8,UAGUGACUCAGGUUCUCUGAGAGAUUAAGA,0.000279 ± 0.021
9,UAGUGACAGUCCUUCUCUGAGUGAUUUACA,0.000996 ± 0.0071
10,UACACUGUCAGCUUCUCUGAGAGAUUAACA,0.655 ± 0.027
11,UAGUGACAGUGCUUCUCUCAGAGAUUUACA,0.00104 ± 0.0069
12,UAGUGACUCUACCUUCUCUGAGAGAUUAACA,0.122 ± 0.014
13,UAGACUGUCACCUUCUCUGAUGAGAUUAACA,0.00209 ± 0.0042
14,UAGUGACAGACCUUGACUGAGAGAUUUUGA,0.000212 ± 0.036
15,UAGUGACAGACCUUCUCUGAGAGUAAAAGA,0.000351 ± 0.02
16,UAGUGACAGACCUUCUGUGAGAGAUUAUGA,0.00251 ± 0.0063
17,UAGUGACACACCUUCACUGAGAGAUUUUGA,0.00288 ± 0.0044
18,UAGUGAGUCACCUUGCUCUGAGAGAUUAACA,0.332 ± 0.07
19,AUCUCUGUCACCUACUCUGAGAGAUUAACA,0.627 ± 0.042
20,UAGUCUGUCACCUUCUCUCUCUCUAAUUGA [g13:g26:cont:t1A],0.000844 ± 0.0095
21,AUCACUCAGACCUUCUCUGAGAGAUUAUGA,0.00269 ± 0.005
22,UACACUGUCACCUUCUCUGUCAGAUAUUGA,0.00314 ± 0.0065
23,UAGUGACAGUCCUUCUCUCAGAGAUAAACA,0.00145 ± 0.0053
24,UAGUGACAGUCCUACUCUGUGAGAUUAACA,0.000559 ± 0.016

row,Sequence,pre-steady-state target cleavage rate
1,UAGACUGAGUCCUUCUCUGAGAGAUUAUGA,0.00278 ± 0.0029
2,UAGACUGUCACCUUCUGAGAGAGAUAUUGA,0.000482 ± 0.011
3,UAGUGACAGUGGAACUCUGAGUGAUUAUCA,0.000537 ± 0.022
4,AACACUGUCACCUUCUCUGAGAGAUUAACA,0.746 ± 0.03
5,AUCACUGUCACCUUCACUGAGACAUUAACA,0.252 ± 0.024
6,UAGUGACAGUCCUUGAGUGAGAGAUUAACA,0.000622 ± 0.011
7,UUCACUGUCAGGAUCUCUGAGAGAUUAUGA,0.00122 ± 0.0051
8,UAGACUGUCACGUUCUCUGAGAGAUAUUGA,0.000286 ± 0.014
9,UUCACUGUCACCUUCUCUGUGAGAUUUACA,0.158 ± 0.027
10,UAGUGACAGUCGUUCUCUGUGAGAUUAACA,0.000148 ± 0.034
11,UAGUGACAGUGGAUCUCUGAGAGAUUAACG [g2:g17:cont:t1G],0.000903 ± 0.0071
12,UUCACUGUCACCAUCUCUGUGAGAUUAACA,0.215 ± 0.015
13,UAGUGACAGUGGAAGUCUGAGCAGAUUAACA,0.000116 ± 0.033
14,UAGUGACAGACCUUCUCUGAGAGAUAAAGA,0.00221 ± 0.005
15,UUCACUGUGUGCUUCUCUGAGAGAUUAUGA,0.00113 ± 0.0063
16,UAGACUGUCACCUGUCUCUGAGAGAUUAACA,0.561 ± 0.036
17,UAGUCUGUCACCUUGUCUGAGAGAUUUUGA,0.197 ± 0.06
18,UUCACUGUCACGAACUCUGAGAGAUUAAGA,0.00121 ± 0.0061
19,UAGUGAGUCACGAUCUCUGAGAGAUUUUGA,0.00157 ± 0.0053
20,UAGACUGUCACCUUCUCUGACUGAUUUUGA,0.00014 ± 0.031
21,UUCACAGUCACCUUCUCUGAGAGAUUAAGA,0.137 ± 0.027
22,UAGACACUCACCUUCUCUGAGAGAUUAUGA,0.141 ± 0.031
23,AUCACUGUCACGAACUCUGAGAGAUUAAGA,0.000786 ± 0.0096
24,UAGUGACAGUCCUUCUCUGAGACGAUUAACA,0.000136 ± 0.028
